From PubChem BioAssay record AID504749 (NCATS, 2011).

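A panel of P. falciparum strains inside erythrocytes is exposed to compounds for three days, then a DNA-binding dye reports the amount of parasite DNA. Each compound was titrated across a series from about 0.000037 to 29 µM. The number is the fitted AC50, the concentration giving a half-maximal change in signal; a lower value means higher potency, whether the curve shows a decrease or an increase. Calls follow the curve class and fit quality: every row here is inconclusive, covering signal-raising curves and weak, poorly fitted, partial or highest-dose-only inhibition curves.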

Values are in µM. All entries here are filed as inconclusive. These entries are mostly ones the record files as inconclusive; other results of the assay are not listed here. A potency from a partial, single-point or poor curve is only a rough figure.

Compound: OCc1ccccc1
condition: TAB113
Potency (µM): 15.85
remark: inhibitor, single point

Compound: OCc1ccccc1
condition: ATS189
Potency (µM): 15.85
remark: inhibitor, single point

Compound: OCc1ccccc1
condition: PAD
Potency (µM): 11.22
remark: inhibitor, single point

Compound: OCc1ccccc1
condition: AS120
Potency (µM): 15.85
remark: inhibitor, single point

Compound: OCc1ccccc1
condition: SC27B
Potency (µM): 17.78
remark: inhibitor, single point

Compound: OCc1ccccc1
condition: HB3
Potency (µM): 11.22
remark: inhibitor, single point

Compound: OCc1ccccc1
condition: GB4
Potency (µM): 19.01
remark: inhibitor, single point

Compound: OCc1ccccc1
condition: CP203
Potency (µM): 19.01
remark: inhibitor, single point

Compound: OCc1ccccc1
condition: CP191
Potency (µM): 17.78
remark: inhibitor, single point

Compound: OCc1ccccc1
condition: CP247
Potency (µM): 17.78
remark: inhibitor, single point

Compound: OCc1ccccc1
condition: CP260
Potency (µM): 17.78
remark: inhibitor, single point

Compound: OCc1ccccc1
condition: DIV14
Potency (µM): 13.46
remark: inhibitor, single point

Compound: Cc1cc(OI)c(C(C)C)cc1-c1cc(C(C)C)c(OI)cc1C
condition: P93_24
Potency (µM): 12.59
remark: inhibitor, partial curve

Compound: Cc1cc(OI)c(C(C)C)cc1-c1cc(C(C)C)c(OI)cc1C
condition: CP269
Potency (µM): 10.69
remark: inhibitor, partial curve

Compound: Cc1cc(OI)c(C(C)C)cc1-c1cc(C(C)C)c(OI)cc1C
condition: ICS
Potency (µM): 11.22
remark: inhibitor, single point

Compound: Cc1cc(OI)c(C(C)C)cc1-c1cc(C(C)C)c(OI)cc1C
condition: CP191
Potency (µM): 14.13
remark: inhibitor, single point

Compound: Cc1cc(OI)c(C(C)C)cc1-c1cc(C(C)C)c(OI)cc1C
condition: CP247
Potency (µM): 17.78
remark: inhibitor, single point

Compound: Cc1cc(OI)c(C(C)C)cc1-c1cc(C(C)C)c(OI)cc1C
condition: CP238
Potency (µM): 8.912
remark: inhibitor, single point